Results are given in words; binding and its absence hold for the method and conditions named. Binding seen in cells or lysates may run through a third protein. Here binding means that the protein was enriched with, or labelled near, the bait; the list need not be complete. Sequences can lack the tags named with a protein.
T1: full-length mEmerald tagged Plin5 (perilipin 5) (UniProt Q8BVZ1)
T1 sequence: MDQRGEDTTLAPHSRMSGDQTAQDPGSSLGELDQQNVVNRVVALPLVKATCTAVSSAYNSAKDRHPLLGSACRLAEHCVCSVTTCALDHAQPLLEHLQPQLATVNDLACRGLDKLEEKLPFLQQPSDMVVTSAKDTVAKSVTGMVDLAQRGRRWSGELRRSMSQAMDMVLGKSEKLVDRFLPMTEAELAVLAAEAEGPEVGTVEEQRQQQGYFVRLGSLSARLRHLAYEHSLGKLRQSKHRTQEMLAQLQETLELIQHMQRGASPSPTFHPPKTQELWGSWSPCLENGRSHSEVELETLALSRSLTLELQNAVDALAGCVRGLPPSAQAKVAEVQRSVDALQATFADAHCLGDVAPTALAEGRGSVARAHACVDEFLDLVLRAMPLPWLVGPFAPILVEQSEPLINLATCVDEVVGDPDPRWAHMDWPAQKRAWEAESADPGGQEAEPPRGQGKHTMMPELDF

The chains behind the UniProt entries cited, without tags or fusion partners.
UniProt Q6P1M0: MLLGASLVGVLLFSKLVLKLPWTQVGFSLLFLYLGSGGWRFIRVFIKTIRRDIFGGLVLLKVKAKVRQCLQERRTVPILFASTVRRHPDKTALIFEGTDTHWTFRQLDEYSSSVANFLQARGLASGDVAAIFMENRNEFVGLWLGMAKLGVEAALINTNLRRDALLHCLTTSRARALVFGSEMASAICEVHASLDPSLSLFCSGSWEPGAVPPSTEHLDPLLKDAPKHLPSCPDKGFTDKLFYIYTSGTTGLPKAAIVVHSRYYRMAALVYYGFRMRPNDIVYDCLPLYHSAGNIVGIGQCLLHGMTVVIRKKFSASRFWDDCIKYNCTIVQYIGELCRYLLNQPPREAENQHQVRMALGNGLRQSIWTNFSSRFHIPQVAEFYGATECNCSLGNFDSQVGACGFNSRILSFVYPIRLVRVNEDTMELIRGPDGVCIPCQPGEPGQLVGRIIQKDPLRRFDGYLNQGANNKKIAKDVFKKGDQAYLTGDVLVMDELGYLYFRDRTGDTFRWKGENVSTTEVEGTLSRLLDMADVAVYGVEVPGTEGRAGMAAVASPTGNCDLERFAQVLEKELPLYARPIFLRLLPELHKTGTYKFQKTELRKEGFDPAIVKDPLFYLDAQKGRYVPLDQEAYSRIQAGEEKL

B1: Acot9 (enzyme, UniProt Q9Y305 22-439)
chain: LTQGPQNPKKQGIFHIHEVRDKLREIVGASTNWRDHVKAMEERKLLHSFLAKSQDGLPPRRMKDSYIEVLLPLGSEPELREKYLTVQNTVRFGRILEDLDSLGVLICYMHNKIHSAKMSPLSIVTALVDKIDMCKKSLSPEQDIKFSGHVSWVGKTSMEVKMQMFQLHGDEFCPVLDATFVMVARDSENKGPAFVNPLIPESPEEEELFRQGELNKGRRIAFSSTSLLKMAPSAEERTTIHEMFLSTLDPKTISFRSRVLPSNAVWMENSKLKSLEICHPQERNIFNRIFGGFLMRKAYELAWATACSFGGSRPFVVAVDDIMFQKPVEVGSLLFLSSQVCFTQNNYIQVRVHSEVASLQEKQHTTTNVFHFTFMSEKEVPLVFPKTYGESMLYLDGQRHFNSMSGPATLRKDYLVEP

Molecular target: T1, full-length mEmerald tagged Plin5 (perilipin 5)
Assay: affinity purification with mass spectrometry

| Molecule | binding |
| --- | --- |
| Fatp4 (ACSVL4), acyl-CoA synthetase (from UniProt Q6P1M0 1-643) (enzyme) | binds |
| B1 | binds |

— paper doi:10.1101/2022.02.03.479028
